PubChem BioAssay AID1259308 | NCATS – 2017
Assay: 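Candidate targets for better recombinant protein yield in mammalian cells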 (primary screen). System: human HEK293 embryonic kidney cells stably expressing firefly luciferase (HEK-CMV-Luc2-Hygro). Knock-down reagent: single siRNA against human genes, 0.8 pmol siRNA per well. Timing: 72 h. Detection: 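Reporter luminescence and viable-cell signal on separate replicate plates, given as percent of non-targeting control and median/MAD z-scores, plus per-cell luciferase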. Reading the numbers: total luciferase, z-score and total luciferase, % of control: higher = more reporter protein produced. Rule for the call: 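Active when the median/MAD z-score for overall luciferase is greater than 3; a gene was taken forward for validation with new siRNAs if at least two of its three siRNAs passed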. Calls: active = raised luciferase; inactive = no rise.
Here is an unselected part of about 59,000 reagents tested. In the full data, about 1,510 (2.6%) got an active call. 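Calls use total luciferase alone and ignore viability, so some active siRNAs may act by altering cell number.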 Entries without a mark were called inactive. The numbers tell different reagents against one gene apart. Not all columns of the deposit are shown.

{"target":"COPS3 (COP9 signalosome subunit 3)","siRNA no.":1,"total luciferase, z-score":-1.32,"total luciferase, % of control":55.7}
{"target":"COPS3 (COP9 signalosome subunit 3)","siRNA no.":2,"total luciferase, z-score":-1.2,"total luciferase, % of control":58}
{"target":"COPS3 (COP9 signalosome subunit 3)","siRNA no.":3,"total luciferase, z-score":-0.339,"total luciferase, % of control":75.1}
{"target":"SLC7A11","siRNA no.":1,"total luciferase, z-score":-0.0488,"total luciferase, % of control":80.9}
{"target":"SLC7A11","siRNA no.":2,"total luciferase, z-score":-0.634,"total luciferase, % of control":69.3}
{"target":"SLC7A11","siRNA no.":3,"total luciferase, z-score":-0.0517,"total luciferase, % of control":80.9}
{"target":"RTL3 (retrotransposon Gag like 3)","siRNA no.":1,"total luciferase, z-score":0.115,"total luciferase, % of control":84.2}
{"target":"RTL3 (retrotransposon Gag like 3)","siRNA no.":2,"total luciferase, z-score":-0.996,"total luciferase, % of control":62.1}
{"target":"RTL3 (retrotransposon Gag like 3)","siRNA no.":3,"total luciferase, z-score":-0.0873,"total luciferase, % of control":80.1}
{"target":"PRSS37 (serine protease 37)","siRNA no.":1,"total luciferase, z-score":-3.14,"total luciferase, % of control":19.5}
{"target":"PRSS37 (serine protease 37)","siRNA no.":2,"total luciferase, z-score":0.755,"total luciferase, % of control":96.9}
{"target":"PRSS37 (serine protease 37)","siRNA no.":3,"total luciferase, z-score":0.332,"total luciferase, % of control":88.5}
{"target":"MYL6B (myosin light chain 6B)","siRNA no.":1,"total luciferase, z-score":1.44,"total luciferase, % of control":110}
{"target":"MYL6B (myosin light chain 6B)","siRNA no.":2,"total luciferase, z-score":-0.824,"total luciferase, % of control":65.5}
{"target":"MYL6B (myosin light chain 6B)","siRNA no.":3,"total luciferase, z-score":1.24,"total luciferase, % of control":106}
{"target":"DMAC1 (distal membrane arm assembly component 1)","siRNA no.":1,"total luciferase, z-score":-2.33,"total luciferase, % of control":35.5}
{"target":"DMAC1 (distal membrane arm assembly component 1)","siRNA no.":2,"total luciferase, z-score":-0.029,"total luciferase, % of control":81.3}
{"target":"DMAC1 (distal membrane arm assembly component 1)","siRNA no.":3,"total luciferase, z-score":0.561,"total luciferase, % of control":93}
{"target":"SCYL3 (SCY1 like pseudokinase 3)","siRNA no.":1,"total luciferase, z-score":0.108,"total luciferase, % of control":84}
{"target":"SCYL3 (SCY1 like pseudokinase 3)","siRNA no.":2,"total luciferase, z-score":-0.219,"total luciferase, % of control":77.5}
{"target":"SCYL3 (SCY1 like pseudokinase 3)","siRNA no.":3,"total luciferase, z-score":-1.32,"total luciferase, % of control":55.7}
{"target":"PLB1 (phospholipase B1)","siRNA no.":1,"total luciferase, z-score":-0.0195,"total luciferase, % of control":81.5}
{"target":"PLB1 (phospholipase B1)","siRNA no.":2,"total luciferase, z-score":1.13,"total luciferase, % of control":104}
{"target":"PLB1 (phospholipase B1)","siRNA no.":3,"total luciferase, z-score":-0.084,"total luciferase, % of control":80.2}
{"target":"KCNA2 (potassium voltage-gated channel subfamily A member 2)","siRNA no.":1,"total luciferase, z-score":0.25,"total luciferase, % of control":86.9}
{"target":"KCNA2 (potassium voltage-gated channel subfamily A member 2)","siRNA no.":2,"total luciferase, z-score":-0.285,"total luciferase, % of control":76.2}
{"target":"KCNA2 (potassium voltage-gated channel subfamily A member 2)","siRNA no.":3,"total luciferase, z-score":-1.06,"total luciferase, % of control":60.9}
{"target":"SPDYE7P","siRNA no.":1,"total luciferase, z-score":0.331,"total luciferase, % of control":88.5}
{"target":"SPDYE7P","siRNA no.":2,"total luciferase, z-score":0.362,"total luciferase, % of control":89.1}
{"target":"SPDYE7P","siRNA no.":3,"total luciferase, z-score":1.77,"total luciferase, % of control":117}
{"target":"VPS18 (VPS18 core subunit of CORVET and HOPS complexes)","siRNA no.":1,"total luciferase, z-score":-0.205,"total luciferase, % of control":77.8}
{"target":"VPS18 (VPS18 core subunit of CORVET and HOPS complexes)","siRNA no.":2,"total luciferase, z-score":-2.31,"total luciferase, % of control":35.9}
{"target":"VPS18 (VPS18 core subunit of CORVET and HOPS complexes)","siRNA no.":3,"total luciferase, z-score":1.67,"total luciferase, % of control":115}
